According to PubChem BioAssay AID743255 (National Center for Advancing Translational Sciences (NCATS), 2014):
About 910 (0.23%) of roughly 390,000 compounds were called active. The shares of active, inactive and inconclusive entries below differ from those in the screen. Calls follow the shape of the dose curve; as a rule, active = well fitted inhibition curve with a large enough effect; inconclusive = small, poorly fitted or top-dose-only effect; inactive = no such curve, though single readings can be large or run the other way. Potencies beside an inconclusive call are fits to weak or partial responses and may not hold up.

The chains behind the UniProt entries cited, without tags or fusion partners. Where a name states a change or a piece, a line headed by the entry shows the natural chain unless it says otherwise.
UniProt O94782: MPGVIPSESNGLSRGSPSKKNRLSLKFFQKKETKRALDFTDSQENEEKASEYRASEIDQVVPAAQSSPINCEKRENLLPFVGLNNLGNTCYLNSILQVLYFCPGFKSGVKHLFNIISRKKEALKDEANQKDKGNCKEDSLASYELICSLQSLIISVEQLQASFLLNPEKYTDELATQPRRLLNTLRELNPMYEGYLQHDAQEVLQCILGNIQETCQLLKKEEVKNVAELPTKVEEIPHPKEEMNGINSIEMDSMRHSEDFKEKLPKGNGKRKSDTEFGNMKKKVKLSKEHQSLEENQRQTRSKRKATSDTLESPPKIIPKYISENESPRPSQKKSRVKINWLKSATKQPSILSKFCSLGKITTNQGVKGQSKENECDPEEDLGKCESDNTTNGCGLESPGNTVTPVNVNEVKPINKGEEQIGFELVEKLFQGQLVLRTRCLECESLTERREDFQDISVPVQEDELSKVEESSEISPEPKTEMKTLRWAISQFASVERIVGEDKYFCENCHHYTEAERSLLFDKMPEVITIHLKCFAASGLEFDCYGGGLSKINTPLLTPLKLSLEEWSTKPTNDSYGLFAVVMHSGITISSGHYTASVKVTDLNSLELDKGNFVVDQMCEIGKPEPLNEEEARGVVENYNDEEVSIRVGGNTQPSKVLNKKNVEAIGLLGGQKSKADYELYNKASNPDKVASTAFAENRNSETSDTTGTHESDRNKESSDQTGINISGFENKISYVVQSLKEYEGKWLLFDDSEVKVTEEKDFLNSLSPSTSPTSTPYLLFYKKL

What follows are compounds tested against Ubiquitin carboxyl-terminal hydrolase 1 (Homo sapiens) (UniProt O94782) (assay: Inhibitors of USP1/UAF1: Primary Screen). Details: recombinant USP1/UAF1, Ub-Rhodamine cleavage fluorescence; activity change, negative = inhibition: at 57.1 µM (top of the series).
How it was run: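 1 nM enzyme complex + cpd, 15 min RT; start with Ub-Rho 150nM final; kinetic fluorescence ex 480/em 540, 6 reads q60 s. Buffer 50mM HEPES pH 7.8, 0.5mM EDTA, 0.1 mg/ml BSA, 1mM TCEP, 0.01% Tween-20.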
% is scaled to controls: 0 for no effect and ±100 for the full control effect; potency is read from the fitted curve at half-maximal effect.
Also: nearly all actives have a fitted effect of over 60% in size.

Compound	Potency	activity change, negative = inhibition
Cc1nc(-c2ccc(NC(=O)c3ccccc3)cc2)cs1	inconclusive: 8.91 µM [inhibitor, full curve, poor fit]	–
Nc1ccc2nc(CCc3ccccc3)[nH]c2c1	–	inactive: -21.2%
CN(Cc1ccccc1)C(=O)c1ccc2c(c1)S(=O)(=O)N=C1CCCCCN12	inconclusive: 50.1 µM [inhibitor, single point]	–
O=C1C2=C(Nc3ccccc3SC2c2ccco2)c2ccccc21 (stereo unspecified)	–	inactive: -19.7%
COc1cccc(/C=N/NC(=O)c2cc3cc([N+](=O)[O-])ccc3s2)c1O	–	inactive: -9.17%
O=C1C(=C(O)c2ccccc2)C(=O)c2ccccc21	inconclusive: 31.6 µM [inhibitor, single point]	–
C=CCNCCOCCOc1ccccc1-c1ccccc1	–	inactive: 6.35%
CC1Cc2cc(S(=O)(=O)NCc3ccc(N(C)C)cc3)ccc2N1C(=O)C1CCC1 (stereo unspecified)	inconclusive: 0.447 µM [inhibitor, full curve, poor fit]	–
COC(=O)c1c(NC(=O)c2nc3ccccc3s2)sc2c1CC(C)(C)NC2(C)C	–	inactive: -8.44%
COc1ccc(NC(=O)Cn2cc(S(=O)(=O)Cc3ccc(F)cc3)c3ccccc32)cc1OC	–	inactive: -21.5%
Cc1cc(-c2ccc(S(=O)(=O)Nc3ccc(Cl)cc3C)cc2)on1	–	inactive: 5.11%
CCCN(C(=O)Cn1ncc2c([nH]c3ccc(C)cc32)c1=O)c1ccccc1C	inconclusive: 0.631 µM [inhibitor, full curve, poor fit]	–
CC1(C)CC2(CC(c3ccccc3F)c3ccc(O)c(O)c3O2)NC(=S)N1 (stereo unspecified)	–	inactive: -4.43%
CC(=O)N1CCOc2ccc(S(=O)(=O)NC[C@H]3O[C@@H](n4ccc(N)nc4=O)[C@H](O)[C@@H]3O)cc21	–	inactive: 4.42%
Cc1cc2c(=O)n(C)c(SCC(=O)c3cc4ccccc4o3)nc2s1	inconclusive: 25.1 µM [inhibitor, partial curve]	–
CCOC(=O)c1c(NC(=O)c2ccccc2C(=O)O)sc2c1CCCC2	–	inactive: -23.4%
CCOc1ccc(NC(=O)c2ccc(F)c(S(=O)(=O)N3CCN(c4ccccn4)CC3)c2)cc1	–	inactive: -11.5%
COc1cc(Cl)c(C)cc1NC(=O)c1cnc(N2CCOCC2)c2ccccc12	inconclusive: 39.8 µM [inhibitor, partial curve]	–
CCO[C@@H]1OC(C(=O)NC2CC2)=C[C@H](c2ccc(Br)cc2)[C@H]1CCCO	inconclusive: 17.8 µM [inhibitor, partial curve]	–
O=C(NCCc1ccccc1)c1ccc2c(c1)N(Cc1ccc(F)cc1)C(=O)c1ccccc1S2	–	inactive: -25.5%
Cc1ccc(-n2nc(C)c(Sc3ccccc3[N+](=O)[O-])c2N)cc1	–	inactive: -10.7%

One compound at a time, as listed above. Order of values: Potency | activity change, negative = inhibition
O=C1C(=C(O)c2ccccc2)C(=O)c2ccccc21 in the list: inconclusive: 31.6 µM [inhibitor, single point] | –
CCO[C@@H]1OC(C(=O)NC2CC2)=C[C@H](c2ccc(Br)cc2)[C@H]1CCCO in the list: inconclusive: 17.8 µM [inhibitor, partial curve] | –
